# Test results as given in PubChem BioAssay AID504467 (National Center for Advancing Translational Sciences (NCATS), 2011).
# Screen size: about 330,000 compounds; about 7,700 (2.3%) were called active. The inconclusive results got no clear call from the source; some entries with a clear call stand among them for comparison. The call rests on the fitted dose curve; in most records, active means well fitted inhibition curve with a large enough effect; inconclusive means small, poorly fitted or top-dose-only effect, or effect the other way; inactive means flat fitted curve, though single readings scatter. Where the call is inconclusive, the potency comes from a doubtful curve fit.
# Assay: qHTS screen for small molecules that inhibit ELG1-dependent DNA repair in human embryonic kidney (HEK293T) cells expressing luciferase-tagged ELG1; further: nearly all actives have a fitted effect of over 55% in size
# Settings: HEK293T ELG1-luciferase reporter, luminescence, 16 h, DNA damage induced by 5-fluorouridine; activity change, negative = inhibition: at 46.1 µM (top of the series)
# Outline: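 DMSO vehicle served as the neutral condition. Each well held 2,000 cells given 5-fluorouridine plus compound; after 16 hr at 37 °C/5% CO2, ONE-Glo was added and luciferase measured 30 min later.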
# On the % scale 0 is the no-effect control and ±100 the full control effect; potency means the concentration at half of the fitted maximal effect.
SMILES,"activity change, negative = inhibition",Potency
C=CCN(c1ccccc1)S(=O)(=O)c1cccc(C(=O)NNC(=O)c2ccncc2)c1,inactive: 30.4%,
O=C(Nc1ccccc1)c1ccc(NCC2CCCO2)c([N+](=O)[O-])c1 (stereo not given),,"inconclusive: 2.31 µM [activator, partial curve]"
Cc1cccc(C(=O)Nc2cccnc2Cl)c1,,"inconclusive: 29.1 µM [activator, single point]"
COc1cc2nc(SCC(=O)c3ccc(Br)cc3)n3nc(C)nc3c2cc1OC,,active: 4.11 µM
O=C(OCCOc1ccccc1Cl)c1ccc(-n2cnnn2)cc1,inactive: 16.3%,
O=C(N/N=C\c1ccc(Cl)cc1)C1=NOC2COC3(CCN(c4ccc([N+](=O)[O-])cc4)CC3)OCC12 (stereo not given),,"inconclusive: 2.59 µM [inhibitor, partial curve, poor fit]"
COCCN(C(=S)Nc1c(C)cc(C)cc1C)C(C)c1cccs1 (stereo not given),inactive: -11.4%,
CCCc1cc(C(=O)Nc2cccc(Cl)c2)no1,,"inconclusive: 23.1 µM [activator, partial curve]"
Cc1cc(C)c(OCC(=O)OC(C)C(=O)N2CCc3ccccc32)c(C)c1 (stereo not given),,"inconclusive: 4.61 µM [activator, full curve, poor fit]"
Cc1ccccc1CN1CCC(Oc2ccc(C(=O)N3CCCC3)cc2)CC1,inactive: 13.9%,
Cc1ccccc1-n1c(-c2ccoc2C)n[nH]c1=S,,"inconclusive: 7.31 µM [inhibitor, single point]"
O=C(C[n+]1ccncc1)c1ccccc1,,"inconclusive: 17.8 µM [activator, single point]"
CC(C)(C)c1ccc(S(=O)(=O)N2CCN(CCC#N)CC2)cc1,inactive: 21.2%,
CC(=O)c1c(C)oc2ccc(N(C(C)=O)S(=O)(=O)c3cccc([N+](=O)[O-])c3)cc12,,"inconclusive: 29.1 µM [inhibitor, single point]"
Cc1cc(C)n(-c2ccc(C(=O)Nc3ccc(N4CCOCC4)cc3)cc2)n1,,"inconclusive: 20.6 µM [inhibitor, partial curve, poor fit]"
O=C(COC(=O)c1cccc(S(=O)(=O)N2CCCCC2)c1)NC1CCCCC1,,"inconclusive: 8.2 µM [activator, partial curve, poor fit]"
COc1ccc(CC(=O)OCC(=O)c2ccc[nH]2)cc1,,"inconclusive: 11.6 µM [activator, partial curve, poor fit]"
COC(=O)Oc1ccc(/C=N/NC(=O)CSCc2ccccc2Br)cc1OC,,"inconclusive: 10.3 µM [inhibitor, partial curve]"
c1ccc(CNc2c3c(nc4ncnn24)CCC3)cc1,inactive: 9.85%,
Cc1csc(SCC(=O)Nc2nc(-c3ccccc3)cs2)n1,,"inconclusive: 18.4 µM [activator, single point]"
CCCCC(=O)Nc1ccc(NC(=S)NC(=O)CC)cc1OC,inactive: 2.92%,
CCCn1c(O)c(CN2CCCCC2)c(C)c(C#N)c1=O,inactive: 10%,
O=C(NCCn1cccn1)c1ccc(OC2CCN(C(=O)C3CC3)CC2)cc1,inactive: 4.92%,
CCc1nnc2n1N=C(c1ccc(Br)cc1)CS2,,"inconclusive: 25.9 µM [activator, single point]"
CCC1CCCCN1S(=O)(=O)c1ccc(NC(=O)c2ccncc2)cc1 (stereo not given),,active: 5.17 µM

SMILES,"activity change, negative = inhibition",Potency
CC(C)Oc1ccc(/C(O)=C2/C(=O)C(=O)N(CCN(C)C)C2c2ccco2)cc1 (stereo not given),,"inconclusive: 16.4 µM [activator, partial curve]"
CC[C@@H]1CC=C[C@H]2[C@H]1C(=O)N(Cc1ccccc1)[C@H]2c1ccc2ccccc2c1,inactive: -6.25%,
CCN(CC)C(CNC(=O)CSc1nnnn1-c1c(C)cccc1C)c1ccco1 (stereo not given),inactive: -5.97%,
CC(=O)N/C(=C\c1ccccc1)C(=O)OCC(=O)NC(=O)c1ccccc1,inactive: 17.6%,
O=C(N/N=C/c1cccc2cccnc12)c1ccccc1O,,"inconclusive: 4.11 µM [activator, full curve]"
CC1Cc2ccccc2N1C(=O)CSc1ncccn1 (stereo not given),,"inconclusive: 23.1 µM [activator, single point]"
CC(=O)N1Cc2ccccc2C(C)CC12CCCCC2 (stereo not given),inactive: 10.3%,
CCN1C(=O)c2cccc3c(N)ccc1c23,,"inconclusive: 6.51 µM [activator, partial curve]"
CNC(=S)/N=C/NOCc1ccc(Cl)cc1Cl,,active: 11.6 µM
CC(=O)Nc1ccc(NC(=O)C2CC(=O)N(C(C)C)C2)cc1 (stereo not given),inactive: -10.5%,
C/C(=N\NC(=S)NCc1ccccc1)c1ccc(C)o1,inactive: 14.8%,
c1ccc2c(Nc3nc(-c4ccncc4)nc4ccccc34)cccc2c1,,"inconclusive: 25.9 µM [inhibitor, single point]"
Cc1onc(-c2ccccc2)c1-c1nnc(-c2ccccc2C(F)(F)F)o1,,"inconclusive: 29.1 µM [inhibitor, single point]"
NS(=O)(=O)c1ccc(NC(=O)C(=O)NCCC(=O)O)cc1,inactive: 0.367%,
Cc1ccc(/C=C/C(=O)N2CCCC(C)C2)cc1 (stereo not given),,"inconclusive: 5.17 µM [activator, partial curve]"
COc1ccc(OC(=O)c2cnn(-c3ccccc3)c2C)cc1,,"inconclusive: 3.66 µM [activator, full curve]"
O=C(NC1CCCCC1)C1CCN(S(=O)(=O)N2CCCCCC2)CC1,inactive: 13.3%,
FC(F)(F)c1cnc(NNC(=S)Nc2ccc(Cl)cc2)c(Cl)c1,,"inconclusive: 2.31 µM [inhibitor, partial curve]"
O=S(=O)(Nc1ccc(N=Nc2ccccc2)cc1)c1ccccc1,inactive: 3.27%,
Cc1ccc2cc(C(c3nnnn3CC3CCCO3)N3CCc4ccccc4C3)c(=O)[nH]c2c1 (stereo not given),inactive: 3.91%,
C[C@H](N=C1NS(=O)(=O)c2ccccc21)C(=O)OCc1cc([N+](=O)[O-])cc2c1OCOC2,inactive: 2.97%,
COc1cc(OC)c(C2C(C#N)=C(N)OC3=C2C(=O)CC(C)C3)cc1OC (stereo not given),,"inconclusive: 11.6 µM [inhibitor, partial curve, poor fit]"
CCC(C)C(=O)Nc1ccc(OC)cc1[N+](=O)[O-] (stereo not given),,"inconclusive: 29.1 µM [activator, single point]"
O=C(CCN1CCOCC1)N1CCCC(Nc2cccc(F)c2)C1 (stereo not given),inactive: -2.98%,
O=C(C[n+]1cn(C(F)F)c2ccccc21)c1ccc(OC(F)F)cc1,,"inconclusive: 14.6 µM [activator, partial curve]"

# Five entries from above in another layout:
SMILES	activity change, negative = inhibition	Potency
CNC(=S)/N=C/NOCc1ccc(Cl)cc1Cl		active: 11.6 µM
CC(=O)Nc1ccc(NC(=O)C2CC(=O)N(C(C)C)C2)cc1 (stereo not given)	inactive: -10.5%	
C/C(=N\NC(=S)NCc1ccccc1)c1ccc(C)o1	inactive: 14.8%	
c1ccc2c(Nc3nc(-c4ccncc4)nc4ccccc34)cccc2c1		inconclusive: 25.9 µM [inhibitor, single point]
Cc1onc(-c2ccccc2)c1-c1nnc(-c2ccccc2C(F)(F)F)o1		inconclusive: 29.1 µM [inhibitor, single point]

# Additional entries:

SMILES,"activity change, negative = inhibition",Potency
Nc1c(C(=O)CSc2nnc(-c3ccccc3F)o2)c(=O)[nH]c(=O)n1C1CC1,,"inconclusive: 2.24 µM [inhibitor, partial curve, poor fit]"
O=C(CSc1nnc(SCc2cccc3ccccc23)s1)N/N=C/c1c[nH]c2ccccc12,,"inconclusive: 29.1 µM [inhibitor, single point]"
CCc1c(C)nc(SCC(=O)c2cccs2)c(C#N)c1C,,"inconclusive: 2.31 µM [activator, full curve]"
Cc1cc2c(cc1S(=O)(=O)Nc1cccc(F)c1)n(C)c(=O)c(=O)n2C,inactive: -0.466%,
O=C(CCn1c(=S)[nH]c2ccccc2c1=O)NCCCN1CCOCC1,inactive: 4.3%,
COc1ccc(OC)c(S(=O)(=O)N2CCC(C(=O)N3CCCCCC3)CC2)c1,inactive: 6.76%,
O=C(NCCNc1ccccc1[N+](=O)[O-])c1ccccc1F,,"inconclusive: 23.1 µM [activator, partial curve]"
CNC(=O)c1cc2ncc(C(F)(F)F)cc2s1,,"inconclusive: 16.4 µM [activator, single point]"
O=C(Nc1nc(-c2ccc(Cl)cc2)cs1)NC1CCCCC1,,"inconclusive: 29.1 µM [inhibitor, single point]"
CCCC(=O)Nc1ccc(NC(=O)c2cccs2)cn1,,"inconclusive: 22.4 µM [activator, partial curve, poor fit]"
CC(=O)c1c(C)[nH]c(C(=O)CN2C(=O)NC(C)(c3ccc4c(c3)OCCO4)C2=O)c1C (stereo not given),,"inconclusive: 25.9 µM [activator, single point]"
NC(=O)c1ccsc1NC(=O)CCS(=O)(=O)c1ccc(Cl)cc1,inactive: -23.4%,
Cn1ncc2c(NNC(=O)c3ccccc3Cl)ncnc21,inactive: 21.5%,
CCN(c1ccccc1)S(=O)(=O)c1ccc(C(=O)Nc2ccccn2)cc1,,"inconclusive: 29.1 µM [inhibitor, single point]"
CC(C)Nc1nc(Oc2cccc(Cl)c2Cl)cc(C(F)(F)F)n1,inactive: 0.264%,
Cc1cnn(-c2cc(N/N=C/c3ccc(F)cc3)ncn2)c1,inactive: -2.61%,
CC[C@]12c3[nH]c4cc(-c5ccco5)ccc4c3CCN1C(=O)[C@@H](CC(=O)NCCC1=CCCCC1)C[C@@H]2C(=O)N1CCN(C(=O)C2CC2)CC1,,active: 20.6 µM
COc1ccc(C2=NOC(Cn3nc(C(=O)NCc4cccs4)cc3-c3ccccc3)C2)cc1 (stereo not given),,"inconclusive: 31.6 µM [inhibitor, single point]"
COc1ccc(C(=O)NCCSc2ccccc2)cc1OC,,"inconclusive: 16.4 µM [activator, partial curve]"
CN(C)/C=C1/Sc2ccccc2C1=O,,"inconclusive: 3.26 µM [activator, partial curve]"
COCc1nnc(NC(=O)c2ccc(S(=O)(=O)N3CCCc4ccccc43)cc2)o1,,active: 16.4 µM
CCC(C)OC(=O)c1[nH]c2c(c1C)C(=O)CC(c1ccc(N(C)C)cc1)C2 (stereo not given),,"inconclusive: 6.51 µM [activator, single point]"
COc1ccc2nc(NC(=O)Nc3ccccc3OC)sc2c1,,"inconclusive: 0.517 µM [activator, full curve]"
O=C(/C=C/c1ccc2c(c1)OCO2)Nc1nc(-c2ccccc2)cs1,,active: 18.4 µM
O=C(N/N=C/c1ccsc1)c1cc2ccccc2o1,inactive: 17.7%,
